PubChem BioAssay AID504834 (National Center for Advancing Translational Sciences (NCATS), 2011)
The whole screen tested about 320,000 compounds, of which about 22,000 (6.9%) were called active. Inconclusive means that the source gave no clear call. Such entries were picked first, then a sample of the others. Calls follow the shape of the dose curve; as a rule, active = well fitted inhibition curve with a large enough effect; inconclusive = small, poorly fitted or top-dose-only effect, or another doubt; inactive = no such curve, though single readings can be large or run the other way. Where the call is inconclusive, the potency comes from a doubtful curve fit.

Experiment: Primary qHTS for delayed death inhibitors of the malarial parasite plastid, 96 hour incubation
Settings: P. falciparum luciferase reporter growth; series mostly up to 28.7 µM; activity change, negative = inhibition: at the top concentration
Procedure, shortened: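 Delayed-death screen, second-generation endpoint: infected erythrocytes, 2% hematocrit, 0.05% parasitemia final; 96 hours at 37 C, 5% CO2; luciferase detection reagent; luminescence decrease equals reduced growth.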
% is scaled to controls: 0 for no effect and ±100 for the full control effect; potency is read from the fitted curve at half-maximal effect.

SMILES	Potency	activity change, negative = inhibition
COc1c(C(=O)NCCSC(C)(C)C)ccc2ccccc12	inconclusive: 18.5 µM [inhibitor, single point]	–
O=C(NNc1ccccn1)C(=O)NNS(=O)(=O)c1ccc(F)cc1	–	inactive: 15.9%
CCCCNC(=O)CCn1nc(-c2ccccc2)c2ccccc2c1=O	–	inactive: 7.34%
FC(F)(F)c1cc(CCN2CCNC[C@H]2Cc2cccc3ccccc23)cc(C(F)(F)F)c1	inconclusive: 18.5 µM [inhibitor, single point]	–
Cc1nc2ccccc2cc1C(=O)N/N=C/c1ccc([N+](=O)[O-])cc1	–	inactive: 14.4%
CC1CC(=O)N(C)c2cc([N+](=O)[O-])ccc2N1 (configuration not stated)	–	inactive: 32.1%
Cn1c(N)c(C(=O)COC(=O)c2cccc(S(=O)(=O)N3CCCCC3)c2)c(=O)n(C)c1=O	inconclusive: 10.4 µM [inhibitor, single point]	–
COc1ccc(OC)c(CCNC(=O)c2ccc3c(c2)N(Cc2ccc(F)cc2)CCS3)c1	inconclusive: 9.28 µM [inhibitor, partial curve]	–
CCOc1ccc(C2/C(=C(/O)c3ccc4c(c3)CC(C)O4)C(=O)C(=O)N2CCCn2ccnc2)cc1OCC (configuration not stated)	inconclusive: 11.7 µM [inhibitor, partial curve]	–
CCc1ccc(N(CC(=O)N2CCCCCC2)S(C)(=O)=O)cc1	inconclusive: 13.1 µM [inhibitor, single point]	–
Cc1nnc(C)n1/N=C/c1cc(Br)cc(Br)c1O	inconclusive: 8.28 µM [inhibitor, partial curve]	–
CN(CC(=O)Nc1cccc(F)c1)CC(=O)Nc1cccc(S(=O)(=O)N2CCCCC2)c1	inconclusive: 10.4 µM [inhibitor, partial curve]	–
N#C/C(=C/c1ccc(Cl)cc1)NC(=O)c1ccccc1	active: 3.7 µM	–
CCOC(=O)c1nnsc1NC(C)=O	inconclusive: 13.1 µM [inhibitor, partial curve]	–
CC1(C)CC(=O)C2=C(C1)Nc1ccccc1NC2c1nc2ccccc2[nH]1 (configuration not stated)	inconclusive: 0.117 µM [inhibitor, full curve, poor fit]	–
CCCCN(CCCC)CCNC(=O)c1cn(C)c2ccc(S(=O)(=O)N(C)C3CCCCC3)cc2c1=O	inconclusive: 11.7 µM [inhibitor, partial curve, poor fit]	–
CC(Oc1ccc2c3c(c(=O)oc2c1)CCCC3)C(=O)NCc1ccncc1 (configuration not stated)	inconclusive: 18.5 µM [inhibitor, single point]	–
COc1ccc(NC(=O)c2ccco2)cc1NC(=O)c1ccco1	–	inactive: -9.2%
COc1ccc(CCNC(=O)CSc2c[nH]c3ccccc23)cc1OC	–	inactive: -1.04%
O=C(CSc1nnc2c(n1)[nH]c1ccccc12)Nc1cccc(S(=O)(=O)N2CCOCC2)c1	active: 14.7 µM	–
CCOC(=O)c1nn(-c2ccccc2F)c(-c2ccccc2)c1C(=O)c1ccccc1	inconclusive: 1.65 µM [inhibitor, full curve, poor fit]	–
COc1cc(-c2nc3cccc(C)n3c2NCC2CCCO2)ccc1O (configuration not stated)	inconclusive: 13.1 µM [inhibitor, single point]	–
Cc1ccc(-n2nc3c(c2NC(=O)C(C)C)CS(=O)(=O)C3)c(C)c1	inconclusive: 2.33 µM [inhibitor, partial curve, poor fit]	–
O=c1c2cnn(-c3ccccc3)c2nc(-c2cccs2)n1-c1cccc(Cl)c1	inconclusive: 18.5 µM [inhibitor, single point]	–

SMILES	Potency	activity change, negative = inhibition
O=C(c1ccccc1)N1CCN(Cc2ccc3c(c2)OCO3)CC1	–	inactive: 13%
O=C(NC1CCCCC1)C(c1ccccn1)N(C(=O)c1csnn1)C1CCCCC1 (configuration not stated)	–	inactive: 24.8%
CCOc1ccc(-c2noc(-c3cccnc3)n2)cc1OC	active: 9.28 µM	–
CCCOC1CCCN(C(=O)c2cc(COc3ccc(-n4cncn4)cc3)on2)C1 (configuration not stated)	–	inactive: -16.9%
Cc1ccc(NC(=O)COC(=O)c2c[nH]c3ccccc23)cc1C	–	inactive: -23.2%
CCOc1ccc(NC(=O)C2CC(=O)N(CCc3ccc(OC)c(OC)c3)C2)cc1OCC (configuration not stated)	inconclusive: 13.1 µM [inhibitor, single point]	–
Cc1cc(C)nc(SCc2nnc(SCC(=O)N3CCCc4ccccc43)o2)n1	active: 1.47 µM	–
O=C(Nc1ccc(Cl)cc1)Nc1nccs1	–	inactive: 61.3%
COc1ccc(-c2nn(-c3ccccc3)cc2/C=C/C(=O)OCC(=O)Nc2cccc(C#N)c2)cc1	inconclusive: 18.5 µM [inhibitor, single point]	–
O=C(Nc1ccc2[nH]c(=O)[nH]c2c1)c1ccc([N+](=O)[O-])o1	active: 11.7 µM	–
Cc1ccc(C(=O)Nc2cc(-c3ccn[nH]3)c(C)n(N)c2=O)cc1	inconclusive: 0.415 µM [inhibitor, full curve]	–
Cc1ccc(NC(=O)CSc2nc(-c3ccco3)cc(C(F)(F)F)n2)cc1C	inconclusive: 18.5 µM [inhibitor, single point]	–
N#C[C@H]1[C@H](c2ccccc2)[C@](C#N)(C(=O)c2ccccc2)[C@@H]2C=Cc3ccccc3N21	–	inactive: -12.5%
COc1ccccc1/C=N/NC(=O)c1ccc2c(c1)OCO2	inconclusive: 6.57 µM [inhibitor, partial curve, poor fit]	–
CC(Sc1ncnc2ccccc12)C(=O)Nc1ccc2c(c1)OCO2 (configuration not stated)	–	inactive: 41.1%
Cc1nn(Cc2c(Cl)cccc2Cl)c(Cl)c1/C=N/NC(=O)c1cccnc1	inconclusive: 4.15 µM [inhibitor, full curve, poor fit]	–
O=C1C(Cl)=C(N2CCCCCC2)C(=O)N1c1ccccc1	–	inactive: -13.4%
COc1ccc(-c2nc(NC3=NCCCCC3)sc2C)cc1	–	inactive: 2.61%
Cc1cccc(CC2CC(=O)N(c3nc4ccccc4s3)C2=O)c1 (configuration not stated)	–	inactive: 92.1% [at 1.15 µM]
C(=N\Nc1nc(N2CCOCC2)nc(N2CCOCC2)n1)/c1ccco1	inconclusive: 3.7 µM [inhibitor, partial curve, poor fit]	–
COc1ccc2[nH]c(C(=O)N3CCNCC3)cc2c1OC	inconclusive: 18.5 µM [inhibitor, single point]	–
CN(Cc1cccs1)C(=O)COc1cccc(-n2cnnn2)c1	–	inactive: 0%
COC(=O)C1=C(C)N(c2ccc(S(N)(=O)=O)cc2)C(=O)C1	–	inactive: 85.6%
COc1cc(/C=C/c2ccc3c([N+](=O)[O-])cccc3n2)ccc1OCC(=O)O	inconclusive: 18.5 µM [inhibitor, single point]	–

Retrieved one by one from the list above, 6 records:
SMILES	Potency	activity change, negative = inhibition
Cc1cc(C)nc(SCc2nnc(SCC(=O)N3CCCc4ccccc43)o2)n1	active: 1.47 µM	–
O=C(CSc1nnc2c(n1)[nH]c1ccccc12)Nc1cccc(S(=O)(=O)N2CCOCC2)c1	active: 14.7 µM	–
COc1ccc(-c2nc(NC3=NCCCCC3)sc2C)cc1	–	inactive: 2.61%
COc1ccc(OC)c(CCNC(=O)c2ccc3c(c2)N(Cc2ccc(F)cc2)CCS3)c1	inconclusive: 9.28 µM [inhibitor, partial curve]	–
Cc1ccc(C(=O)Nc2cc(-c3ccn[nH]3)c(C)n(N)c2=O)cc1	inconclusive: 0.415 µM [inhibitor, full curve]	–
N#C/C(=C/c1ccc(Cl)cc1)NC(=O)c1ccccc1	active: 3.7 µM	–

Additional results

SMILES	Potency	activity change, negative = inhibition
CCCc1nn2c(=O)cc(CSCC(=O)Nc3ccc(C)cc3)nc2s1	inconclusive: 18.5 µM [inhibitor, single point]	–
CCN(CC)c1ccc(NC(=O)Cn2c(C(C)NC(=O)c3ccccc3)nc3ccccc32)cc1 (configuration not stated)	inconclusive: 18.5 µM [inhibitor, single point]	–
Cc1cc(NS(=O)(=O)c2c(C)c(C)cc(C)c2C)no1	inconclusive: 9.28 µM [inhibitor, single point]	–
FC(F)(F)c1nnc2c(Sc3ccccc3)nc3ccccc3n12	–	inactive: -14%
CCNC(=O)NC(=O)CSc1ccc(S(=O)(=O)N2CCCCC2)cn1	active: 5.22 µM	–
COc1cccc(CNC(=O)CN(C)S(=O)(=O)c2ccc3c(c2)c(=O)n(C)c(=O)n3C)c1	inconclusive: 13.1 µM [inhibitor, single point]	–
N/C(=N\c1nc(CSc2nc3ccccc3s2)cc(=O)[nH]1)Nc1ccc(F)cc1	inconclusive: 10.4 µM [inhibitor, single point]	–
CSC1=NC2(CCCCC2)CC12C=CC(=O)C=C2	–	inactive: 164%
COc1ccc(CNC(=O)CN2C(=O)c3ccc([N+](=O)[O-])cc3C2=O)cc1	–	inactive: 52.7%
Cc1cc(C)cc(NC(=O)N2CCCC2C(=O)NCc2ccco2)c1 (configuration not stated)	inconclusive: 18.5 µM [inhibitor, single point]	–
FC(F)(F)c1nc2ccccc2nc1N/N=C/c1c(Cl)cccc1Cl	–	inactive: -8.48%
Cc1nnc(SCc2nnc(-c3cccs3)o2)n1Cc1ccccc1	inconclusive: 10.4 µM [inhibitor, single point]	–
Cc1ccc(CNc2ncnc3cc(Cl)ccc23)o1	inconclusive: 11.7 µM [inhibitor, partial curve, poor fit]	–
COc1ccc(CNC(c2ccccc2)c2ccc(Cl)cc2)cc1 (configuration not stated)	inconclusive: 10.4 µM [inhibitor, single point]	–
N#CC(/C(=N/S(=O)(=O)c1cccs1)c1ccccc1)c1nc2ccccc2[nH]1 (configuration not stated)	inconclusive: 18.5 µM [inhibitor, partial curve, poor fit]	–
Cc1ccc(S(=O)(=O)N2CCN(CC(=O)Nc3ccccc3Cl)CC2)cc1	–	inactive: -10%
Cc1c(C(=O)N2CCCCC2)nnn1-c1nonc1N	–	inactive: -40.3%
COc1cc(C(=O)NCCC(C)C)ccc1OCc1ccc(Cl)cc1Cl	active: 4.65 µM	–
CSc1nc2c(cnn2-c2ccccc2)c(=O)n1N	–	inactive: -27.2% [at 5.75 µM]
COc1ccc(/C=N/NC(=O)CN(C)C(=O)OCc2ccccc2)cc1OC	inconclusive: 18.5 µM [inhibitor, single point]	–
Clc1ccc(OCCCNCc2ccccc2)c(Br)c1	inconclusive: 18.5 µM [inhibitor, single point]	–
CN(CC(=O)Nc1ccccc1Cl)C(=O)COC(=O)C1CC1	inconclusive: 11.7 µM [inhibitor, partial curve, poor fit]	–
Cc1cccc(C)c1NC(=O)CCn1cnc2ccccc2c1=O	–	inactive: 2.68%
O=C(Nc1nc2ccccc2s1)C1CCN(S(=O)(=O)c2cc([N+](=O)[O-])ccc2Cl)CC1	inconclusive: 18.5 µM [inhibitor, single point]	–
